Laboratory results published in article PMC11616693.
Results are given in words; binding and its absence hold for the method and conditions named. Some results given as binding are weak or reduced against the parent protein; the word gives no strength. Each block holds one molecule with its values, some of them ahead of it.

Chains of the proteins cited; added tags and fusions are not shown. Lines headed by an entry give the natural chain unless they say otherwise; changes in a name come on top.
UniProt P06756: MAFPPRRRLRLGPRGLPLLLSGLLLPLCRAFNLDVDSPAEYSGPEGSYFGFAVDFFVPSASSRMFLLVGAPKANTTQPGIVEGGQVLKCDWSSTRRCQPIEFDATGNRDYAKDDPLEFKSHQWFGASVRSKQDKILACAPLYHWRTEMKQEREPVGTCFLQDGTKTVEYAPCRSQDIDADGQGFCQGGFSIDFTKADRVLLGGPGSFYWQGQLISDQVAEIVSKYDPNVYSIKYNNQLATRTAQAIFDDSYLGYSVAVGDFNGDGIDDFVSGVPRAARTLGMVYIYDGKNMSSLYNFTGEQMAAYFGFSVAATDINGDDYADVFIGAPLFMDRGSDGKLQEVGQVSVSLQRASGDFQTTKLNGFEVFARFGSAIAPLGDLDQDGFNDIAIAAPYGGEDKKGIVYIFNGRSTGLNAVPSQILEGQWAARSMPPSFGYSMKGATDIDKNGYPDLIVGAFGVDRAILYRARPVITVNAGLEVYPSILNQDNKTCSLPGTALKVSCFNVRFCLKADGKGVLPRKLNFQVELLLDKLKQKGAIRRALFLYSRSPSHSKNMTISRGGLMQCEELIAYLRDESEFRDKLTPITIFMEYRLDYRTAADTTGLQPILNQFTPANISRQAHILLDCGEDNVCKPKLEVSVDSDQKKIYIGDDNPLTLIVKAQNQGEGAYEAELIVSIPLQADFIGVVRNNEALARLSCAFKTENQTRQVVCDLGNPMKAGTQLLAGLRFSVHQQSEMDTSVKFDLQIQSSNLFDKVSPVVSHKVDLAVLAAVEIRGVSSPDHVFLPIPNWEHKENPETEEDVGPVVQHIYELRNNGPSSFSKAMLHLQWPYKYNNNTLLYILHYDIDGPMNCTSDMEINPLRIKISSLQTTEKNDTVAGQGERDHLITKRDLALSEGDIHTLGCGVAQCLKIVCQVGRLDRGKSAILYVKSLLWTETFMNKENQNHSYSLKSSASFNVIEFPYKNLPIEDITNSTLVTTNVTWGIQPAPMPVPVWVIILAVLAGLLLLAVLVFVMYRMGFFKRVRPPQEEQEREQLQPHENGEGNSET
UniProt P18564: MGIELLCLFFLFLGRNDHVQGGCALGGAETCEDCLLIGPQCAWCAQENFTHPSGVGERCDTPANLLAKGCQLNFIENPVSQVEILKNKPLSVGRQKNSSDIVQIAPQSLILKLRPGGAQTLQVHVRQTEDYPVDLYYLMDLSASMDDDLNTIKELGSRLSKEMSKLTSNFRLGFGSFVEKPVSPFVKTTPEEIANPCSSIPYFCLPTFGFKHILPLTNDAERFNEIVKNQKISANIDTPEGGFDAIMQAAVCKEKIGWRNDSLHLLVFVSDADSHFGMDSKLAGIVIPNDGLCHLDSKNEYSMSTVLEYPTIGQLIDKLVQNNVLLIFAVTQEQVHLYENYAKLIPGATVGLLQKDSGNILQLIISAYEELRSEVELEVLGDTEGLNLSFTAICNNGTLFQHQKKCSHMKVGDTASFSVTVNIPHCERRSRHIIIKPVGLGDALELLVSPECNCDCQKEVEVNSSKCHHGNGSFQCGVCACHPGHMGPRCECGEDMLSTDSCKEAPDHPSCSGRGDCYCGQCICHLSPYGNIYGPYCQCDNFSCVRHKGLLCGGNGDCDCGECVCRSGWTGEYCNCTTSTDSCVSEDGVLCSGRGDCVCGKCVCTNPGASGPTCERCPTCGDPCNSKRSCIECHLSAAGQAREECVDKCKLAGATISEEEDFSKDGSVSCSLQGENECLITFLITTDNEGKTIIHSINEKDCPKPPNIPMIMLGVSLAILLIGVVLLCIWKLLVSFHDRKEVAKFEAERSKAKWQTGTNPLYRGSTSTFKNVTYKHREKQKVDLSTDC
UniProt P49023: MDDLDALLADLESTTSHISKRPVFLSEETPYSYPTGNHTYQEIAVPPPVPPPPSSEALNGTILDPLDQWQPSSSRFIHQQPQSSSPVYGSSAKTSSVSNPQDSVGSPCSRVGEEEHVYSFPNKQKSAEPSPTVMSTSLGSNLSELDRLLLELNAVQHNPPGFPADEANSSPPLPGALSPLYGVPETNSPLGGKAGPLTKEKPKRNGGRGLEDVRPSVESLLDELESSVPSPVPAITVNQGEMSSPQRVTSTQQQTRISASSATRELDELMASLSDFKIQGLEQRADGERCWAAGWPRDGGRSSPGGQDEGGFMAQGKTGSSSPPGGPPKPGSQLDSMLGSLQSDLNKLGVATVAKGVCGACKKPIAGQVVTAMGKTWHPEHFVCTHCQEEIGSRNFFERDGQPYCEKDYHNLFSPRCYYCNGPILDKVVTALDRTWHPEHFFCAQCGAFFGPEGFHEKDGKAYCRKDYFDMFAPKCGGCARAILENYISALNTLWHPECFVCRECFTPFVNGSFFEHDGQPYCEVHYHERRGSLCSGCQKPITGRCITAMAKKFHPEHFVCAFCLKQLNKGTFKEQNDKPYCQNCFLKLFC
UniProt P04406: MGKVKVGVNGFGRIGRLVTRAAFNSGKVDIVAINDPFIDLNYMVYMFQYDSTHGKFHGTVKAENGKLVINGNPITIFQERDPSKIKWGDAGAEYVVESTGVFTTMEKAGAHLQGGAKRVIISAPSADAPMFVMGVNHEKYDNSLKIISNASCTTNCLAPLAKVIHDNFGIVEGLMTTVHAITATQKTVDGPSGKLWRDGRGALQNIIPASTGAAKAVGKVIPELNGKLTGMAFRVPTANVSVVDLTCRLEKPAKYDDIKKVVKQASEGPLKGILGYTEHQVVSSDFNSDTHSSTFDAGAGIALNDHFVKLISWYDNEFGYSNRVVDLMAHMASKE
UniProt P51149: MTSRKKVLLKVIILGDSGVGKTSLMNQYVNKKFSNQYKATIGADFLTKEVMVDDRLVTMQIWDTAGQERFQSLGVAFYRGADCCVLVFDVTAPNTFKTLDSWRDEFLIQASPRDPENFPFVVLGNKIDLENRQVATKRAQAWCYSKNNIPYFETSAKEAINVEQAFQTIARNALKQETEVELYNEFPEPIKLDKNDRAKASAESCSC

Target: αVβ6 integrin (human (endogenous in BT474 and HER2-18)) (UniProt P06756+P18564)
Experiment: isolation of integrin adhesion complexes (IACs) with immunoblotting; IACs isolated from BT474 cells on LAP, FN and Coll-I after DTBP cross-linking and removal of cell bodies; immunoblot

Molecule: paxillin (from UniProt P49023 1-591)
- binding: binds

B1: guanine nucleotide dissociation inhibitor 2 (protein, UniProt P50395 1-445)
chain: MNEEYDVIVLGTGLTECILSGIMSVNGKKVLHMDRNPYYGGESASITPLEDLYKRFKIPGSPPESMGRGRDWNVDLIPKFLMANGQLVKMLLYTEVTRYLDFKVTEGSFVYKGGKIYKVPSTEAEALASSLMGLFEKRRFRKFLVYVANFDEKDPRTFEGIDPKKTTMRDVYKKFDLGQDVIDFTGHALALYRTDDYLDQPCYETINRIKLYSESLARYGKSPYLYPLYGLGELPQGFARLSAIYGGTYMLNKPIEEIIVQNGKVIGVKSEGEIARCKQLICDPSYVKDRVEKVGQVIRVICILSHPIKNTNDANSCQIIIPQNQVNRKSDIYVCMISFAHNVAAQGKYIAIVSTTVETKEPEKEIRPALELLEPIEQKFVSISDLLVPKDLGTESQIFISRTYDATTHFETTCDDIKNIYKRMTGSEFDFEEMKRKKNDIYGED
- binding: binds

Second part, the molecule after the results:

- binding: no binding
Molecule: glyceraldehyde-3-phosphate dehydrogenase (from UniProt P04406 1-335)

- binding: binds
Molecule: RAB7A (from UniProt P51149 1-207)
